{"sequences": {"note": "The chains behind the UniProt entries cited, without tags or fusion partners.", "UniProt P38398": "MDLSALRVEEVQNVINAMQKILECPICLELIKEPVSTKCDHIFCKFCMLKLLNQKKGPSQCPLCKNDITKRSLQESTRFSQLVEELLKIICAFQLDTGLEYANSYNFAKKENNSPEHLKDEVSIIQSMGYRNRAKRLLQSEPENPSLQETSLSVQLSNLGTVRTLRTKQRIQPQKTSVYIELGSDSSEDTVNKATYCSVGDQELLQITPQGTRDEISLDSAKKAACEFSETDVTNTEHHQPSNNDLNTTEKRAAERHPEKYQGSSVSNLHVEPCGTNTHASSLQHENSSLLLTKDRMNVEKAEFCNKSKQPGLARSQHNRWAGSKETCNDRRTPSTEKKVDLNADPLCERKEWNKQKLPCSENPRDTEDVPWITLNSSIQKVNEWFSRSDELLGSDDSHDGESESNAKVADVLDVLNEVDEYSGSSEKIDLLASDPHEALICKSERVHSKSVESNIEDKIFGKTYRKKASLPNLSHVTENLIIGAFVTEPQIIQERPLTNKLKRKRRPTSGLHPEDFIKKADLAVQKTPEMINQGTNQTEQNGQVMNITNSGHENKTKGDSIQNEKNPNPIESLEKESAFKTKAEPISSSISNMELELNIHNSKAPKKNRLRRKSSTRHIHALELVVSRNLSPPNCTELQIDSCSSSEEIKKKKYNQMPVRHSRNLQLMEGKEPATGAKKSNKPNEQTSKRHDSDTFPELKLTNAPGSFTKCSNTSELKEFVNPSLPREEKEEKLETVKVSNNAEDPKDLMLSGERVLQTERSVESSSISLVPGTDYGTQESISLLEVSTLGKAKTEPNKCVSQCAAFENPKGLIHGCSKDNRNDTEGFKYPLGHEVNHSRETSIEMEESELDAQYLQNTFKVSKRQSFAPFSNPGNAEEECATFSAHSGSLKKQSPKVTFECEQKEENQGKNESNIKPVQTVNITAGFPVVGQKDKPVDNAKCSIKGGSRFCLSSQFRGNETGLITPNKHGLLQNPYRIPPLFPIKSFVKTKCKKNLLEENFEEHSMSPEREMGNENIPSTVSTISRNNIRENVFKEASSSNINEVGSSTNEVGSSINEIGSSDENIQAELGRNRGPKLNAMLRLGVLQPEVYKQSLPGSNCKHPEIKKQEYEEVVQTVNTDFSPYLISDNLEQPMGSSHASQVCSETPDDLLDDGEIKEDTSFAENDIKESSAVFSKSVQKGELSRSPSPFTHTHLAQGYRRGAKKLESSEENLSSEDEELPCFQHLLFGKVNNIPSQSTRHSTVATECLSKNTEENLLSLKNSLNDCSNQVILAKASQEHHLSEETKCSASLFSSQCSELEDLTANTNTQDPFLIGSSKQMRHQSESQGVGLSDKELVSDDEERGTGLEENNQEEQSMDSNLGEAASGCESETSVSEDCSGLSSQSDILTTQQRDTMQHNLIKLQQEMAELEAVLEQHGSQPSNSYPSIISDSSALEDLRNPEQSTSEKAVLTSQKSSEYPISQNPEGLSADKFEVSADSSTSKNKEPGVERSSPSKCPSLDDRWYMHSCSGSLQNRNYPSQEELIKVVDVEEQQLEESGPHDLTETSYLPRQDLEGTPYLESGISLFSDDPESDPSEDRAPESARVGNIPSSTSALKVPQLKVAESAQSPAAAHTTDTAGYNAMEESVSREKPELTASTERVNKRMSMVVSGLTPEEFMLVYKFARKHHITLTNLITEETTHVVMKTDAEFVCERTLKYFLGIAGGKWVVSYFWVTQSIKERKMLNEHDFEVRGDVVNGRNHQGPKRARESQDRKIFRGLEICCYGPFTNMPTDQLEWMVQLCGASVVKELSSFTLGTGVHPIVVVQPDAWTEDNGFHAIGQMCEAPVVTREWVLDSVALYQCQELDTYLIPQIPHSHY", "UniProt P14635": "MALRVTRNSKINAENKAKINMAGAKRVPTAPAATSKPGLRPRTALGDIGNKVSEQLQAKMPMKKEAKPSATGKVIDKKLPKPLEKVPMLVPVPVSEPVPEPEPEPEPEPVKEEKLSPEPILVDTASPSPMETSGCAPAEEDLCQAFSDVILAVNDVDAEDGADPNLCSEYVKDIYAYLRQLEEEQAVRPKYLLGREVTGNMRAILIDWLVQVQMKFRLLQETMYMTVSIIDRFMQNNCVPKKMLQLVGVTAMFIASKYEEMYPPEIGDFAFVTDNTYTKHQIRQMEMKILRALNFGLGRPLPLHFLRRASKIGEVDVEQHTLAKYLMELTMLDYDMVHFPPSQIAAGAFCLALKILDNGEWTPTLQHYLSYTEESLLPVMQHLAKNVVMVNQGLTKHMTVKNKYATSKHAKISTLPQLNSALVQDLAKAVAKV"}, "source": "paper PMC6191436", "biological_target": "BRCA1 (endogenous, MCF7) (human (endogenous in MCF7)) (UniProt P38398)", "test": "co-IP; endogenous proteins; lysates of MCF7 cells (irradiated or not; nocodazole-arrested and released); anti-BRCA1 IgG or control IgG, protein A/G Sepharose beads, overnight at 4 °C; Western blot", "note": "Results are given in words; binding and its absence hold for the method and conditions named. In cells and extracts the contact can be indirect. Some binding calls cover weakened binding; strength is not graded here."}
{"substance": "cyclin B1 (endogenous, MCF7) (from UniProt P14635 1-433)", "values": [{"measurement": "binding", "value": "binds"}]}
